Measurements taken from the supplement of paper PMC6078165.
± gives the standard deviation of the averaged measurements. The reference is the same well before dosing, and untreated signal decays as well.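 The cancer cells are triple-negative breast cancer lines of basal-like or mesenchymal-like type, grown without fibroblasts. A drop in red signal reflects loss of mitochondrial integrity, a stand-in for apoptotic death.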

Assays:
[1] = system: MDAMB436; assay: relative JC-1 red fluorescence (viability) vs pre-drug, monoculture (fraction); higher = more viable cancer cells; settings: coculture fibroblast: none (monoculture)
Procedure: (§1)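 JC-1 labelled TNBC cells grown in monoculture (density kept equal with unlabelled cancer cells) in 384-well plates in FluoroBrite medium, treated with one of 42 anticancer drugs at 0.1, 1, 10 or 100 uM. JC-1 red fluorescence (mitochondrial integrity, surrogate of apoptotic death) was read by plate reader every 8 h for 72 h. Values are normalised to each well's pre-drug value, with background from alamethicin. The stock of one drug was tenfold lower, so its dose labels may be too high. Monoculture values are repeated alongside each fibroblast plate and are averaged here.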

[2] = system: HCC1143; assay: as above; settings: coculture fibroblast: none (monoculture)
Procedure: as §1

CC/C(=C(\c1ccccc1)c1ccc(OCCN(C)C)cc1)c1ccccc1 [Tamoxifen]
relative JC-1 red fluorescence
Settings	8 h	16 h	24 h	32 h	40 h	48 h	56 h	64 h	72 h
[1], 0.1 µM	0.8534 ± 0.0041	0.783 ± 0.019	0.791 ± 0.028	0.744 ± 0.032	0.76 ± 0.037	0.752 ± 0.038	0.753 ± 0.044	0.757 ± 0.049	0.768 ± 0.06
[1], 1 µM	0.876 ± 0.014	0.7669 ± 0.0011	0.7817 ± 0.0064	0.7353 ± 0.0022	0.708 ± 0.013	0.692 ± 0.011	0.674 ± 0.011	0.662 ± 0.019	0.653 ± 0.016
[1], 10 µM	0.8979 ± 0.0049	0.865 ± 0.011	0.8552 ± 0.0026	0.7825 ± 0.0027	0.7667 ± 0.0019	0.7259 ± 0.0033	0.6777 ± 0.0033	0.6436 ± 0.0025	0.613 ± 0.0071
[2], 0.1 µM	0.8882 ± 0.0055	0.8064 ± 0.001	0.7432 ± 0.0068	0.6863 ± 0.0036	0.6476 ± 0.0029	0.6225 ± 0.0033	0.5978 ± 0.0054	0.59 ± 0.0083	0.5782 ± 0.0031
[2], 1 µM	0.8899 ± 0.0025	0.806 ± 0.0084	0.732 ± 0.02	0.684 ± 0.026	0.642 ± 0.027	0.602 ± 0.027	0.569 ± 0.025	0.555 ± 0.026	0.534 ± 0.032
[2], 10 µM	0.955 ± 0.011	0.9223 ± 0.0021	0.875 ± 0.0071	0.8141 ± 0.0025	0.74888 ± 0.00043	0.6821 ± 0.0036	0.6442 ± 0.0032	0.598 ± 0.012	0.561 ± 0.013

CC[C@]1(O)C[C@H]2CN(CCc3c([nH]c4ccccc34)[C@@](C(=O)OC)(c3cc4c(cc3OC)N(C=O)[C@H]3[C@@](O)(C(=O)OC)[C@H](OC(C)=O)[C@]5(CC)C=CCN6CC[C@]43[C@@H]65)C2)C1 [Vincristine]
relative JC-1 red fluorescence
Settings	8 h	16 h	24 h	32 h	40 h	48 h	56 h	64 h	72 h
[1], 0.1 µM	0.886 ± 0.025	0.884 ± 0.015	0.966 ± 0.034	0.896 ± 0.043	0.847 ± 0.14	0.738 ± 0.025	0.848 ± 0.022	0.748 ± 0.053	0.803 ± 0.1
[1], 1 µM	0.86199 ± 0.00012	0.787 ± 0.027	0.757 ± 0.0093	0.676 ± 0.0095	0.649 ± 0.027	0.625 ± 0.041	0.603 ± 0.05	0.593 ± 0.061	0.585 ± 0.065
[1], 10 µM	0.923 ± 0.023	0.819 ± 0.029	0.88 ± 0.013	0.839 ± 0.022	0.861 ± 0.024	0.868 ± 0.013	0.882 ± 0.008	0.883 ± 0.015	0.8926 ± 0.0068
[1], 100 µM	0.908 ± 0.012	0.88959 ± 0.00029	0.9047 ± 0.0022	0.8746 ± 0.0067	0.8812 ± 0.0047	0.874 ± 0.018	0.862 ± 0.027	0.845 ± 0.035	0.824 ± 0.033
[2], 0.1 µM	0.81783 ± 0.00074	0.755 ± 0.0054	0.693 ± 0.029	0.6 ± 0.06	0.552 ± 0.067	0.546 ± 0.072	0.519 ± 0.072	0.519 ± 0.083	0.51 ± 0.087
[2], 1 µM	0.88 ± 0.015	0.796 ± 0.02	0.736 ± 0.014	0.6735 ± 0.0049	0.6291 ± 0.0026	0.602 ± 0.019	0.576 ± 0.026	0.552 ± 0.033	0.543 ± 0.046
[2], 10 µM	0.9082 ± 0.0076	0.836 ± 0.016	0.8 ± 0.018	0.747 ± 0.029	0.704 ± 0.024	0.675 ± 0.025	0.644 ± 0.032	0.627 ± 0.032	0.61 ± 0.028
[2], 100 µM	0.953 ± 0.037	0.934 ± 0.059	0.931 ± 0.068	0.853 ± 0.03	0.888 ± 0.1	0.856 ± 0.099	0.849 ± 0.098	0.819 ± 0.088	0.806 ± 0.08

CCC1=C[C@@H]2CN(C1)Cc1c([nH]c3ccccc13)[C@@](C(=O)OC)(c1cc3c(cc1OC)N(C)[C@H]1[C@@](O)(C(=O)OC)[C@H](OC(C)=O)[C@]4(CC)C=CCN5CC[C@]31[C@@H]54)C2 [Vinorelbine]
relative JC-1 red fluorescence
Settings	8 h	16 h	24 h	32 h	40 h	48 h	56 h	64 h	72 h
[1], 0.1 µM	0.899 ± 0.012	0.819 ± 0.02	0.844 ± 0.015	0.792 ± 0.025	0.805 ± 0.038	0.791 ± 0.034	0.802 ± 0.037	0.805 ± 0.042	0.818 ± 0.04
[1], 1 µM	0.9073 ± 0.0025	0.854 ± 0.011	0.845 ± 0.0091	0.7954 ± 0.0047	0.796 ± 0.0058	0.76 ± 0.013	0.742 ± 0.02	0.731 ± 0.026	0.715 ± 0.034
[1], 10 µM	0.853 ± 0.026	0.787 ± 0.049	0.795 ± 0.057	0.746 ± 0.081	0.726 ± 0.075	0.697 ± 0.068	0.671 ± 0.068	0.637 ± 0.063	0.621 ± 0.064
[1], 100 µM	0.686 ± 0.029	0.498 ± 0.039	0.356 ± 0.023	0.255 ± 0.014	0.216 ± 0.012	0.179 ± 0.0063	0.15 ± 0.0081	0.125 ± 0.0051	0.104 ± 0.011
[2], 0.1 µM	0.8908 ± 0.0081	0.798 ± 0.017	0.7128 ± 0.0036	0.6505 ± 0.0016	0.5962 ± 0.0055	0.555 ± 0.0059	0.526 ± 0.0019	0.5147 ± 0.0029	0.5 ± 0.0063
[2], 1 µM	0.912 ± 0.018	0.853 ± 0.015	0.808 ± 0.027	0.765 ± 0.027	0.717 ± 0.04	0.678 ± 0.039	0.663 ± 0.041	0.65 ± 0.049	0.634 ± 0.044
[2], 10 µM	0.945 ± 0.0069	0.888 ± 0.017	0.83 ± 0.0085	0.773 ± 0.011	0.707 ± 0.012	0.6594 ± 0.002	0.6257 ± 0.00087	0.5985 ± 0.0027	0.574 ± 0.005
[2], 100 µM	0.6 ± 0.021	0.423 ± 0.082	0.315 ± 0.077	0.259 ± 0.071	0.221 ± 0.072	0.194 ± 0.067	0.169 ± 0.07	0.147 ± 0.064	0.126 ± 0.063
